The test system of the series is D16-FAM·R16. Description: anisotropy time-course of D16-FAM·R16 binding, annealing and release. Type of series: biochemical. To be noted: mixture of ternary complex, D16-FAM·R16 and Hfq·D16-FAM; mean of at least two independent experiments. Here is the method: Figure 4. Shortening the CTD increases auto-inhibition by acidic residues. (A) Observed annealing rate constants for 100 nM target RNA and 50 nM molecular beacon with 0–200 nM Hfq hexamer at 30°C, measured by stopped-flow fluorescence. Black, Hfq102; red, Hfq-sCTD; cyan, Hfq65. (B) Fluorescence anisotropy assay for RNA binding and release. In stopped-flow FRET experiments, the dsRNA is released after pairing with its complementary strand ([Panja et al., 2013]; [Santiago-Frangos et al., 2016]). […] Remaining RNA was displaced from Hfq by excess ssDNA (400 nM DNA2). The averages and standard deviations for three trials are plotted for each Hfq variant. […] (D) Annealing of 5 nM ^32P-ChiX sRNA with 30 nM chiP mRNA without Hfq, or with Hfq65, Hfq102 or Hfq-sCTD, as indicated above each lane. Samples were loaded on a native polyacrylamide gel 60 min or 20 s after the components were mixed. […] (E) Fractions of free ChiX (black), ChiX·chiP dsRNA (light grey), ChiX·Hfq·chiP ternary complex (hatched) and ChiX·Hfq binary complex (dark grey) after 4 min of annealing, as analyzed by EMSA (Figure 4—figure supplement 2). […] Annealing of 100 nM Target RNA to 50 nM beacon RNA by Hfq variants was measured by stopped flow fluorescence at 30°C in 1 × TNK buffer. […] The change in fluorescence emission intensity was normalized to the maximum fluorescence within an experiment. […]

As for “Hfq65: truncated E. coli Hfq variant lacking the CTD”, the “rAP, anisotropy at the end of the 'annealing and release' phase” value is on record as 0.1099.

For the substance Hfq102: full-length E. coli Hfq, the “rAP, anisotropy at the end of the 'annealing and release' phase” value is reported as 0.0732.
